The record followed here is article PMC2842432.

Test [1] concerns the target T1, FSH-tagged Gal-TRβ (aa 189-461) expressed in HEK293 cells (human) (UniProt P10828).
T1 sequence: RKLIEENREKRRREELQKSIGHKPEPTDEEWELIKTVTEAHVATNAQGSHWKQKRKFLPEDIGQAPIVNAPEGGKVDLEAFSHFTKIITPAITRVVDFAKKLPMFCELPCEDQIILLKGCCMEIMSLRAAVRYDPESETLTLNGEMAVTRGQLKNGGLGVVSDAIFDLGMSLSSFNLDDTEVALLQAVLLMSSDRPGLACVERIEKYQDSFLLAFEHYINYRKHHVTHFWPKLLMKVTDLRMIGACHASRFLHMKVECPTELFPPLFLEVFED
The experiment in a line: co-IP; HEK293 cells co-transfected with FLAG-HIPK3 and FSH-tagged Gal fusion; IP buffer (50 mM Tris pH 8, 150 mM NaCl, 1 mM EDTA, 0.75% NP-40, 1 mM DTT); Gal fusion captured on Strep-Tactin, 3 washes; FLAG-M2 Western blot.

Test [2] addresses T2, FSH-tagged Gal-TRβ_(ΔAF2) (aa 189-451) expressed in HEK293 cells (human) (UniProt P10828).
T2 sequence: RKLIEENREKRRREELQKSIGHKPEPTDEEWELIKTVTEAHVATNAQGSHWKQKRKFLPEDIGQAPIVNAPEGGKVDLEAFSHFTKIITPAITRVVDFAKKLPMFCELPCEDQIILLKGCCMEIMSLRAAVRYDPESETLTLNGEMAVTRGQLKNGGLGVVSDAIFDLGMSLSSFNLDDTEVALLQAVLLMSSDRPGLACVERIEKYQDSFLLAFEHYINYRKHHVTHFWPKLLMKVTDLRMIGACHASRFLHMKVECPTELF
The description is as above.

No constants are given. Whether binding was seen depends on the method and setting. Binding seen in cells or lysates may run through a third protein. Some entries that bind do so weakly or less than the wild type. Tags and fused reporters may be left off the sequences shown.

B1: FLAG-HIPK3 (2-1191) (enzyme, UniProt O88850 2-1191)
chain: ASQVLVYPPYVYQTQSSAFCSVKKLKVEPSGCVFQERACPQIHVNGRHFGNPLPSTKGSAFQTKIPFSKPRGHSFSLQAGAIVVKDTAGATKVIAAQAQQAGVEAPRAVVWRNRLHFLGGPQRCGLKRKSEELDNHSGAMQIVDELSILPAMLQTNMGNPVTVVTATTGSKQNCTSGEGDYQLVQHEVLCSVKNTYEVLDFLGRGTFGQVVKCWKRGTNEIVAIKILKNHPSYARQGQIEVSILARLSTENADEYNFVRAYECFQHRNHTCLVFEMLEQNLYDFLKQNKFSPLPLKVIRPVLQQVATALKKLKSLGLIHADLKPENIMLVDPVRQPYRVKVIDFGSASHVSKTVCSTYLQSRYYRAPEIILGLPFCEAIDMWSLGCVIAELFLGWPLYPGALEYDQIRYISQTQGLPGEQLLNVGTKSTRFFCRETDMSHSGWRLKTLEEHEAETGMKSKEARKYIFNSLDDIVHVNTVMDLEGSDLLAEKADRREFVSLLKKMLLIDADLRITPIETLNHPFVSMKHLLDFPHSSHVKSCFHIMDICKSPSSCETNNHSKMSLLRPVASNGTAALAANFTKVGTLRSQALTTSAHSVVHHGIPLQAGTAQFGCGDAFHQTLIICPPAIQGIPAAHGKPTSYSIRVDNTVPLVTQAPAVQPLQIRPGVLSQTWSGRTQQMLIPAWQQVTPMAPAAATLTSEGMAGSQRLGDWGKMIPHSNHYNSVMPPPLLTNQITLSAPQPISVGIAHVVWPQPATTKKNKLCQNRSNSLQNTNVPHSAFISPKIISGKEVEEVSCVETQDNHTSEGEARTCHEASVRQDSSVSDKQRQTIIIADSPSPAVSVITISSDTDDEETSPRPSLRECKGSLDCEACQSTLNIDRMCSLSSPDSTLSTSSSGQSSPSPCKRPNSMSDDEQESGCETVDGSPTSDSSGHDSPFAESSFVEDTPQNPELGTCAGTEAKPALSTAVEPPVGTERGLNVDAHMANTDSTCQPLTKGQPAPGKLNQPSASAARQQKPTSAFQQQHLNLSQVQHFGTGHQEWNGNFGHRRQQAYIPTSVTSNPFTLSHGSPNHTAVHAHLAGSAHLGGQPTLLPYPPSTALSSAAPVAHLLASPCTSRPMLQHPTYNISHPSGIVHQVPVGINPRLLPSPTIHQTQYKPIFPPHSYIAASPAYTGFPLSPTKLSQYPYM
On to B1, for which the binding entry in test [1] and in test [2] was “binds” each time.
